Here are results for four molecules from paper PMC10645070.

Protein sequences, listed by entry. Tags and fused reporters are not part of them.
UniProt P08050: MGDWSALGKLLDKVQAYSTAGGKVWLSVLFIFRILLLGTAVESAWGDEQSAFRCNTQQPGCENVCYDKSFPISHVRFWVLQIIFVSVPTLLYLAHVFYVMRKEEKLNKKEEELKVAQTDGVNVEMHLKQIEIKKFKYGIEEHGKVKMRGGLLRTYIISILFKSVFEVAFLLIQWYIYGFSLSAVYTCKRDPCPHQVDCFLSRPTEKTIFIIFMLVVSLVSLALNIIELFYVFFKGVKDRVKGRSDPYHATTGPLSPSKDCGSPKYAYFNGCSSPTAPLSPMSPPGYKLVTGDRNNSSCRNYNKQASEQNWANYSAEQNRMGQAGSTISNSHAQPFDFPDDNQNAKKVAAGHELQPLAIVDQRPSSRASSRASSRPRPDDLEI
UniProt P67809: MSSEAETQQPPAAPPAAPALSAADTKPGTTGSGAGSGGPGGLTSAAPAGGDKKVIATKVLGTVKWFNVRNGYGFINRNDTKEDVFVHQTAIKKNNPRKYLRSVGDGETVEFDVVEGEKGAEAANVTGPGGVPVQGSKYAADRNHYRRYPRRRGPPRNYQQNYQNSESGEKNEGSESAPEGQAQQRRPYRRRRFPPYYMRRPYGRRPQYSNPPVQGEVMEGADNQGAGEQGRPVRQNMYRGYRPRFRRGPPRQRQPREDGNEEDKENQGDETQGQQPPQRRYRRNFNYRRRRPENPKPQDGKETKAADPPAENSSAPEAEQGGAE

Like-named read-outs stand apart in the source and are kept apart here. These are yes or no findings as the source states them, for the method shown. Binding seen in cells or lysates may run through a third protein. Here binding means that the protein was enriched with, or labelled near, the bait; the list need not be complete.

The target in assay [1] is Connexin43 (Cx43) of rat origin, stably expressed in HEK293 cells (HEK293^Cx43+) (rat) (UniProt P08050). The assay can be described thus: affinity purification with mass spectrometry; IP of Cx43 from 3 mg purified nuclear lysate, on-bead trypsin digestion, LC-MS/MS, compared with negative control samples (t-test, FDR = 0.01, S0 = 1).
Assay [2] has the same target. Described as above. The source holds these as a separate data set.

As for “Y-box-binding protein 1 (YBX1), endogenous (from UniProt P67809 1-324)”, in assay [1], the binding entry is listed as “binds”.

B1: myelin expression factor 2 (MYEF2) (protein, UniProt Q9P2K5 1-600)
chain: MADANKAEVPGATGGDSPHLQPAEPPGEPRREPHPAEAEKQQPQHSSSSNGVKMENDESAKEEKSDLKEKSTGSKKANRFHPYSKDKNSGAGEKKGPNRNRVFISNIPYDMKWQAIKDLMREKVGEVTYVELFKDAEGKSRGCGVVEFKDEEFVKKALETMNKYDLSGRPLNIKEDPDGENARRALQRTGGSFPGGHVPDMGSGLMNLPPSILNNPNIPPEVISNLQAGRLGSTIFVANLDFKVGWKKLKEVFSIAGTVKRADIKEDKDGKSRGMGTVTFEQAIEAVQAISMFNGQFLFDRPMHVKMDDKSVPHEEYRSHDGKTPQLPRGLGGIGMGLGPGGQPISASQLNIGGVMGNLGPGGMGMDGPGFGGMNRIGGGIGFGGLEAMNSMGGFGGVGRMGELYRGAMTSSMERDFGRGDIGINQGFGDSFGRLGSAMIGGFAGRIGSSNMGPVGSGISGGMGSMNSVTGGMGMGLDRMSSSFDRMGPGIGAILERSIDMDRGFLSGPMGSGMRERIGSKGNQIFVRNLPFDLTWQKLKEKFSQCGHVMFAEIKMENGKSKGCGTVRFDSPESAEKACRIMNGIKISGREIDVRLDRNA
In the case of B1, the binding entry in assay [2] is reported as “binds”.

B2: SNW domain-containing protein 1 (SNW1) (protein, UniProt Q13573 1-536)
chain: MALTSFLPAPTQLSQDQLEAEEKARSQRSRQTSLVSSRREPPPYGYRKGWIPRLLEDFGDGGAFPEIHVAQYPLDMGRKKKMSNALAIQVDSEGKIKYDAIARQGQSKDKVIYSKYTDLVPKEVMNADDPDLQRPDEEAIKEITEKTRVALEKSVSQKVAAAMPVRAADKLAPAQYIRYTPSQQGVAFNSGAKQRVIRMVEMQKDPMEPPRFKINKKIPRGPPSPPAPVMHSPSRKMTVKEQQEWKIPPCISNWKNAKGYTIPLDKRLAADGRGLQTVHINENFAKLAEALYIADRKAREAVEMRAQVERKMAQKEKEKHEEKLREMAQKARERRAGIKTHVEKEDGEARERDEIRHDRRKERQHDRNLSRAAPDKRSKLQRNENRDISEVIALGVPNPRTSNEVQYDQRLFNQSKGMDSGFAGGEDEIYNVYDQAWRGGKDMAQSIYRPSKNLDKDMYGDDLEARIKTNRFVPDKEFSGSDRRQRGREGPVQFEEDPFGLDKFLEEAKQHGGSKRPSDSSRPKEHEHEGKKRRKE
Turning to B2, the binding entry in assay [2] is on record as “binds”.

B3: Ca2+-regulated heat stable protein 1 (CARHSP1) (protein, UniProt Q9Y2V2 1-147)
chain: MSSEPPPPPQPPTHQASVGLLDTPRSRERSPSPLRGNVVPSPLPTRRTRTFSATVRASQGPVYKGVCKCFCRSKGHGFITPADGGPDIFLHISDVEGEYVPVEGDEVTYKMCSIPPKNEKLQAVEVVITHLAPGTKHETWSGHVISS
B3: in assay [2], the binding result is “binds”.
